Assay results reported in PubChem BioAssay AID504467 (National Center for Advancing Translational Sciences (NCATS), 2011).
The campaign covered roughly 330,000 compounds. About 7,700 (2.3%) were called active. Inconclusive results, whose numbers are uncertain, are shown with a selection of clear calls. Calls follow the shape of the dose curve; as a rule, active = well fitted inhibition curve with a large enough effect; inconclusive = small, poorly fitted or top-dose-only effect, or effect the other way; inactive = flat fitted curve, though single readings scatter. Potencies of inconclusive entries are doubtful fits and often do not repeat.

test: qHTS screen for small molecules that inhibit ELG1-dependent DNA repair in human embryonic kidney (HEK293T) cells expressing luciferase-tagged ELG1; settings: HEK293T ELG1-luciferase reporter, luminescence, 16 h, DNA damage induced by 5-fluorouridine; activity change, negative = inhibition: at 46.1 µM (top of the series); also: nearly all actives have a fitted effect of over 55% in size
Outline: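 Cells (2,000 per well) received 5-fluorouridine plus test compound or DMSO and were incubated 16 hr at 37 °C, 5% CO2. Luciferase activity was read by luminescence 30 min after ONE-Glo addition; signal suppression marked inhibition of damage-induced ELG1 function.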
% is scaled to controls: 0 for no effect and ±100 for the full control effect; potency is read from the fitted curve at half-maximal effect.

| SMILES | Potency | activity change, negative = inhibition |
| --- | --- | --- |
| O=C(Nc1ccc2c(c1)OCCO2)c1oc2ccccc2c1NC(=O)C1CC1 | inconclusive: 18.3 µM [inhibitor, single point] |  |
| COc1ccccc1CCNC(=O)NC1CCCCC1 | inconclusive: 23.1 µM [activator, partial curve] |  |
| COc1ccc(NC(=O)C2Cc3ccccc3CN2C(=O)c2ccco2)cc1 (stereo not given) | inconclusive: 18.3 µM [activator, partial curve] |  |
| CCN(CC)S(=O)(=O)c1ccc(OC)c(NC(=O)OCc2ccccc2)c1 |  | inactive: -15.7% |
| N#C/C(=C\c1ccc(-c2ccccc2C(=O)O)o1)c1nc2ccccc2[nH]1 | inconclusive: 16.4 µM [activator, partial curve, poor fit] |  |
| COc1ccc(/C=C/c2nc3ccccc3n2C)cc1 | inconclusive: 0.092 µM [activator, full curve] |  |
| COc1ccc(OC)c(Nc2ccc(Nc3cc(OC)ccc3OC)nn2)c1 | inconclusive: 25.9 µM [inhibitor, single point] |  |
| Cc1cccc(N2C(=O)c3ccccc3C2=O)n1 | inconclusive: 14.6 µM [activator, partial curve, poor fit] |  |
| Fc1ccc(CO/N=C/C2=C(Cl)c3ccccc3CC2)cc1 | inconclusive: 18.4 µM [activator, single point] |  |
| O=C(NNc1ncnc2sccc12)c1ccc(Cl)cc1 | inconclusive: 29.1 µM [inhibitor, single point] |  |
| Cc1ccc(C)c(C(=O)CSc2nc3ccccc3c(=O)[nH]2)c1 |  | inactive: 10.3% |
| COCCNC(=O)C1CCN(S(=O)(=O)c2c(C)noc2/C=C/c2cccs2)CC1 |  | inactive: -3.4% |
| COc1ccccc1N1CCN(Cc2nc(N)nc(Nc3ccccc3)n2)CC1 | inconclusive: 35.5 µM [inhibitor, single point] |  |
| CCOc1ccc(N=C(/C(C(=O)C(=O)N2CCOCC2)=C(/O)c2ccccc2)c2ccccc2)cc1 | inconclusive: 11.6 µM [activator, partial curve] |  |
| Cc1ccc(/C=N/NC(=O)CSc2nc3ccccc3c(=O)n2-c2ccccc2)s1 | inconclusive: 23.1 µM [inhibitor, partial curve, poor fit] |  |
| O=C(COC(=O)c1cc(S(=O)(=O)N2CCCC2)ccc1O)Nc1ccc(F)cc1F |  | inactive: 2.55% |
| CN(Cc1cccc(F)c1)C(=O)c1ccccc1Sc1ccccc1C#N | inconclusive: 23.1 µM [inhibitor, single point] |  |
| O=c1c2cn[nH]c2nc(SCc2ccc3c(c2)OCCO3)n1-c1ccccc1 | inconclusive: 29.1 µM [inhibitor, single point] |  |
| CCc1ccc(C(=O)CCC(=O)Nc2ccc(OC)c(S(=O)(=O)N3CCCCC3)c2)cc1 | inconclusive: 20.6 µM [inhibitor, single point] |  |
| Clc1ccc(OCCN2CCOCC2)cc1Cl | inconclusive: 18.4 µM [activator, single point] |  |
| Cc1nnc(SCC(=O)N(C)Cc2ccccc2)[nH]c1=O |  | inactive: -0.665% |
| CCOC(=O)c1sc2nc3c(cc2c1N)COC(C(C)C)C3 (stereo not given) | inconclusive: 0.231 µM [activator, partial curve, poor fit] |  |
| COc1ccc(N2CCN(c3ccc(Cl)nn3)CC2)cc1 | inconclusive: 20.6 µM [activator, partial curve, poor fit] |  |
| CCCc1cc(C(=O)Nc2ccc(OC)cc2[N+](=O)[O-])cs1 | inconclusive: 11.6 µM [activator, partial curve] |  |

Ordered by length of the SMILES (ascending): 3 of the compounds above

| SMILES | Potency | activity change, negative = inhibition |
| --- | --- | --- |
| Cc1cccc(N2C(=O)c3ccccc3C2=O)n1 | inconclusive: 14.6 µM [activator, partial curve, poor fit] |  |
| CCN(CC)S(=O)(=O)c1ccc(OC)c(NC(=O)OCc2ccccc2)c1 |  | inactive: -15.7% |
| Cc1ccc(/C=N/NC(=O)CSc2nc3ccccc3c(=O)n2-c2ccccc2)s1 | inconclusive: 23.1 µM [inhibitor, partial curve, poor fit] |  |

(list continues)

| SMILES | Potency | activity change, negative = inhibition |
| --- | --- | --- |
| c1ccc2c(-c3nnc4n3CCCCC4)cc(-c3ccncc3)nc2c1 |  | inactive: 19.9% |
| Cc1ccc(S(=O)(=O)N2CCCC(C(=O)Nc3cccnc3)C2)cc1 (stereo not given) | inconclusive: 20.6 µM [inhibitor, single point] |  |
| COc1cc(N=Cc2c(O)c3ccccc3oc2=O)c(OC)cc1Cl | inconclusive: 1.12 µM [inhibitor, partial curve, poor fit] |  |
| CC(Sc1nnnn1-c1cccc(F)c1)C(=O)NC1CCCC1 (stereo not given) |  | inactive: -7.75% |
| Cc1c(NC(=O)/C(C#N)=C/c2ccc(-c3ccc(Cl)cc3)o2)c(=O)n(-c2ccccc2)n1C | active: 16.4 µM |  |
| S=C(NCc1ccccn1)Nc1ccc(Cl)cc1Cl | inconclusive: 29.1 µM [activator, single point] |  |
| CCC(=O)Nc1ccc2c(c1)ncn2-c1ccc(C)cc1 | inconclusive: 10.3 µM [activator, partial curve] |  |
| CSc1nc(C)c2c(c1C#N)CCCC2 | inconclusive: 20.6 µM [inhibitor, partial curve, poor fit] |  |
| COc1ccc2c(C(=O)CN3CCN(c4ccccc4)CC3)c[nH]c2c1 | inconclusive: 32.6 µM [activator, partial curve, poor fit] |  |
| COc1ccc([C@H]2[C@H](C(=O)C(C)(C)C)N3N=Cc4ccccc4C3C23C(=O)OC(C)(C)OC3=O)cc1 (stereo not given in full) |  | inactive: 12.5% |
| CCOC(=O)C1=C(C)NC(C)=C(C(=O)OCC)C1C(=O)OCC(=O)NCc1ccc(F)cc1 | inconclusive: 16.4 µM [inhibitor, single point] |  |
| O=C(Nc1ccccc1)Nc1ccc2ocnc2c1 | inconclusive: 11.6 µM [activator, partial curve] |  |
| COc1ccc(C2CC(=O)c3cnc(NC(=O)c4cc(OC)cc(OC)c4)nc3C2)cc1 (stereo not given) | inconclusive: 31.6 µM [inhibitor, single point] |  |
| Cc1nnc(Sc2c(-c3ccccc3)c3ccc(Cl)cc3[nH]c2=O)s1 |  | inactive: 5.58% |
| COCC(C)OC(=O)c1c(N)n(CC(C)C)c2nc3ccccc3nc12 (stereo not given) | active: 3.66 µM |  |
| COc1ccc(-c2noc(CN(C)C(=O)Nc3ccccc3)n2)cc1 | inconclusive: 29.1 µM [inhibitor, single point] |  |
| CC1CCC(NC(=O)Nc2cccs2)CC1 (stereo not given) | inconclusive: 16.4 µM [activator, partial curve] |  |
| COC(/C(=N/O)c1ccc(Cl)cc1)c1ccccc1 (stereo not given) | inconclusive: 29.1 µM [activator, partial curve, poor fit] |  |
| COc1ccc(N2C(=O)C3C(C2=O)C(C(=O)c2ccc(Cl)cc2)N2CCCC32)cc1 (stereo not given) | inconclusive: 29.1 µM [activator, single point] |  |
| Cc1nn(C)c(C)c1CNC(=O)c1cc2n(n1)C(C(F)(F)F)CC(c1cccs1)N2 (stereo not given) |  | inactive: -15% |
| COc1ccc2c(C=O)c[nH]c2c1 |  | inactive: -4.98% |
| CCn1cnc2c(cnn2-c2ccccc2)c1=O | inconclusive: 29.1 µM [activator, single point] |  |
| CC1CCCN(CCOCCOc2ccc(Cl)cc2Br)C1 (stereo not given) |  | inactive: -2.12% |
| CCCOc1cccc(C(=O)Nc2ccc3c(c2)OCCO3)c1 | inconclusive: 0.631 µM [activator, full curve] |  |

| SMILES | Potency | activity change, negative = inhibition |
| --- | --- | --- |
| Nc1nc(-c2cc(O)ccc2[N+](=O)[O-])cc(-c2ccccc2)c1[N+](=O)[O-] |  | inactive: -7.22% |
| Cc1cc(NC(=O)Cn2c(C)nc3ccccc3c2=O)ccc1Br |  | inactive: 10% |
| CCC(=O)N1CCN(c2ccccc2NC(=O)c2ccc(-c3cccc([N+](=O)[O-])c3)o2)CC1 | active: 9.2 µM |  |
| Cc1cccc(OCC(=O)N/N=C\c2cc3c(cc2[N+](=O)[O-])OCO3)c1C | inconclusive: 16.4 µM [inhibitor, single point] |  |
| CCC(CC)C(=O)Nc1nnc(SCC(=O)N2CCN(c3ccccc3OC)CC2)s1 | inconclusive: 35.5 µM [inhibitor, single point] |  |
| COCCn1c(=N)c(C(=O)NCc2ccco2)cc2c(=O)n3ccccc3nc21 |  | inactive: -5.51% |
| O=C(NCC1CC1)NC(=O)c1c(F)cccc1Cl | inconclusive: 20.6 µM [activator, partial curve] |  |
| COc1cc(OC)cc(C(=O)Nc2cccc(NC(=O)c3ccccc3)c2)c1 | active: 16.4 µM |  |
| COc1ccc(-n2c(=O)/c(=C\c3cccs3)s/c2=C(/C#N)C(=O)N2CCN(C)CC2)cc1 | inconclusive: 16.4 µM [activator, single point] |  |
| NC(=O)COc1ccc(C23CC4CC(CC(C4)C2)C3)cc1 | inconclusive: 20.6 µM [activator, single point] |  |
| Cc1cccc(Nc2nc(N)nc(CSc3nccn3C)n2)c1 | inconclusive: 20.6 µM [activator, partial curve] |  |
| O=C(NC(=S)Nc1cccc(NC(=O)c2ccccc2Cl)c1)c1cccs1 | inconclusive: 29.1 µM [inhibitor, single point] |  |
| c1ccc(-c2noc(-c3cccs3)n2)nc1 | inconclusive: 0.92 µM [activator, partial curve] |  |
| COc1ccc(S(=O)(=O)NCc2cccnc2)cc1NC(=O)c1ccc(Cl)cc1 | inconclusive: 25.9 µM [inhibitor, single point] |  |
| CC(=O)Nc1ccc(S(=O)(=O)N2CCC(C(=O)NCCC(=O)NCc3ccccc3)CC2)cc1 |  | inactive: 12.7% |
| CC(C)(C)Nc1nc(Cl)nc(N(C#N)CN2C(=O)c3ccccc3S2(=O)=O)n1 |  | inactive: -14.9% |
| C=CCNS(=O)(=O)NC(=O)C1=C(N2CCCC2)COC1=O | inconclusive: 32.6 µM [activator, partial curve, poor fit] |  |
| O=C(O)c1cc(N/N=C/C=C/c2ccccc2)ccc1Cl | inconclusive: 2.59 µM [activator, full curve] |  |
| CCOC(=O)c1c(N)nn(C(=O)C(C)C)c1-c1ccccc1 |  | inactive: -15.3% |
| C=CCc1ccccc1OCCOc1ccc([N+](=O)[O-])cc1/C=N/NC(N)=O | inconclusive: 6.51 µM [inhibitor, single point] |  |
| CC(C)CN(C(=O)CCNC(=O)c1ccccc1Cl)C1CCS(=O)(=O)C1 (stereo not given) |  | inactive: 2.24% |
| Cc1ccccc1S(=O)(=O)N1[C@@H](c2cccc(Cl)c2)C(C(=O)O)=CC[C@H]1c1ccc(Cl)cc1 | inconclusive: 28.2 µM [activator, single point] |  |
